US20120322150A1, “Mechanism and Method for Regulating Glycogen Synthase Kinase 3 (GSK3)-Related Kinases” (CARNEGIE INSTITUTION OF WASHINGTON, priority 2009, published 2012)
Positions count from the first letter of the chain named. These are yes or no findings as the source states them, for the method shown. For part of these data: In cells and extracts the contact can be indirect. Some results given as binding are weak or reduced against the parent protein; the word gives no strength. For part of these data: Sequences can lack the tags named with a protein. Blank lines part the entries; values can stand above or below the substance they belong to.

Chains of the proteins cited; added tags and fusions are not shown. Lines headed by an entry give the natural chain unless they say otherwise; changes in a name come on top. Residues count along the entry.
UniProt Q944A7, residues 2-512: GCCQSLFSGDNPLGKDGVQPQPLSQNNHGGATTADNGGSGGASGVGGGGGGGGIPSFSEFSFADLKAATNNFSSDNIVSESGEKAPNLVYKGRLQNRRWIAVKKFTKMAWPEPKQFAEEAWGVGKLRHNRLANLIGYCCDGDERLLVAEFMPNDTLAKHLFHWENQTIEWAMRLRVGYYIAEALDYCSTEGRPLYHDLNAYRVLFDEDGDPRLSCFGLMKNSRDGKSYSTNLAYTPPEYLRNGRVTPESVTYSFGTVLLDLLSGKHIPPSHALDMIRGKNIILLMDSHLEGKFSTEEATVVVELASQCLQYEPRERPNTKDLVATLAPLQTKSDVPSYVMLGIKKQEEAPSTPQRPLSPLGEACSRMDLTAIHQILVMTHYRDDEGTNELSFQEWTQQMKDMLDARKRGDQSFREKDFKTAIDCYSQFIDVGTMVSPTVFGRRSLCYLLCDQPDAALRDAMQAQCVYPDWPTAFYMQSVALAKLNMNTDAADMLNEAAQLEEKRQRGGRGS
UniProt Q9LR78: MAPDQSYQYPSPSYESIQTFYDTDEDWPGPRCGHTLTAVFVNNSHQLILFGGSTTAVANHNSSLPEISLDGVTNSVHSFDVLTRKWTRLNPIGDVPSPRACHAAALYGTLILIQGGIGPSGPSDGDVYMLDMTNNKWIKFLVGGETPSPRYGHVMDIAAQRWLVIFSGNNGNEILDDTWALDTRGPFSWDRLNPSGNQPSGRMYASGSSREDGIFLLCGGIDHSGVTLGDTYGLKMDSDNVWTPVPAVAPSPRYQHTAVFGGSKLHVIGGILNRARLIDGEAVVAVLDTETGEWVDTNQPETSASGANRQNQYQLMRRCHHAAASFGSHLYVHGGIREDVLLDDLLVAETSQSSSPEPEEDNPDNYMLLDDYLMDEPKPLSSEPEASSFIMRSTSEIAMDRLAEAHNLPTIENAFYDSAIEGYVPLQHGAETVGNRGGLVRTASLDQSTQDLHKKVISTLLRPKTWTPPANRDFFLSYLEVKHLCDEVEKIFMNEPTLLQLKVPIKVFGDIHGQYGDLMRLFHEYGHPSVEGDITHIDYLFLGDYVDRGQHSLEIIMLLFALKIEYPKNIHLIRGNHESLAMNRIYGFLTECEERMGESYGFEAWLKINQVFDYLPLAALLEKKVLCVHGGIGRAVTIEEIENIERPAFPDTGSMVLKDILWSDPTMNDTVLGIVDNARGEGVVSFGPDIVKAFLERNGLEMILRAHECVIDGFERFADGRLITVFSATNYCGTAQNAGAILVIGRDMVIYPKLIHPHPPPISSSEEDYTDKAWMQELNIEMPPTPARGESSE

Tests used:
[1] = molecular target: T1, bin2-1 fused N-terminal half (nYFP) of yellow fluorescence protein (Arabidopsis) (UniProt Q39011); assay: BiFC
T1 sequence (looked up): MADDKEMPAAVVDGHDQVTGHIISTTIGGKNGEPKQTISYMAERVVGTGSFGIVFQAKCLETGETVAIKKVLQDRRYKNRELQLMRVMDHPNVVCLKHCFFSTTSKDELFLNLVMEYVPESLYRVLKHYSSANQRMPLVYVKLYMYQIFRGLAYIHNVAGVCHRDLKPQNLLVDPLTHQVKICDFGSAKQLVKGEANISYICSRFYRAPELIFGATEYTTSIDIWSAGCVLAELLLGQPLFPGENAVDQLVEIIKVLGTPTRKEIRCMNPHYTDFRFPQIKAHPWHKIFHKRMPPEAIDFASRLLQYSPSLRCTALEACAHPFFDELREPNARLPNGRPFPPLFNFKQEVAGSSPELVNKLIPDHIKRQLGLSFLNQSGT

[2] = molecular target: T1, bin2-1 fused N-terminal half (nYFP) of yellow fluorescence protein (Arabidopsis); assay: BiFC (FIG. 14)
BSK1-myc (Arabidopsis) [3] = molecular target: BSK1-myc (Arabidopsis) (UniProt Q944A7); assay: co-immunoprecipitation from Arabidopsis
BIN2-myc (Arabidopsis) [4] = molecular target: T2, BIN2-myc (Arabidopsis) (UniProt Q39011); assay: pull-down with BIN2-myc on anti-myc beads from plant extract
T2 sequence (looked up): T1 sequence (looked up) with K263E

BIN2-myc (Arabidopsis) [5] = molecular target: T2, BIN2-myc (Arabidopsis); assay: co-immunoprecipitation from Arabidopsis, with or without brassinolide
BSK1-myc (Arabidopsis) [6] = molecular target: BSK1-myc (Arabidopsis) (UniProt Q944A7); assay: co-immunoprecipitation from Arabidopsis with anti-myc, blot with anti-GFP
bin2-1-myc (Arabidopsis) [7] = molecular target: T3, bin2-1-myc (Arabidopsis) (UniProt Q39011); assay: pull-down with myc-tagged bin2-1 on anti-myc beads from BSU1-YFP plant extract (FIG. 13)
T3 sequence (looked up): T1 sequence (looked up)

BIN2-myc (Arabidopsis) [8] = molecular target: T2, BIN2-myc (Arabidopsis); assay: pull-down: myc-tagged protein on anti-myc beads incubated with extracts of BSU1-YFP plants
bin2-1-myc (Arabidopsis) [9] = molecular target: T3, bin2-1-myc (Arabidopsis); assay: as above
BIN2-myc (Arabidopsis) [10] = molecular target: T2, BIN2-myc (Arabidopsis); assay: co-immunoprecipitation from Arabidopsis with anti-myc antibodies, blot with anti-GFP; with or without brassinolide
BIN2-YFP (Arabidopsis) [11] = molecular target: T4, BIN2-YFP (Arabidopsis) (UniProt Q39011); assay: co-immunoprecipitation from tobacco cells
T4 sequence (looked up): T1 sequence (looked up) with K263E

BIN2-YFP (Arabidopsis) [12] = molecular target: T4, BIN2-YFP (Arabidopsis); assay: co-immunoprecipitation from tobacco leaves with anti-GFP antibody, blot with anti-myc

- binding [1]: binds
- binding [2]: binds
Substance: BSU1 fused to C-terminal half (cYFP) of YFP (from UniProt Q9LR78 1-793) (enzyme)

- binding (BSK1-myc (Arabidopsis) [3]): binds
- binding (BIN2-myc (Arabidopsis) [4]): binds
- binding (BIN2-myc (Arabidopsis) [5]): binds
- binding (BSK1-myc (Arabidopsis) [6]): binds
- binding (bin2-1-myc (Arabidopsis) [7]): binds
- binding (BIN2-myc (Arabidopsis) [8]): binds
- binding (bin2-1-myc (Arabidopsis) [9]): binds
- binding (BIN2-myc (Arabidopsis) [10]): binds
Substance: BSU1-YFP (from UniProt Q9LR78 1-793) (enzyme)

- binding (BIN2-YFP (Arabidopsis) [11]): binds
- binding (BIN2-YFP (Arabidopsis) [12]): binds
Substance: BSU1-myc (from UniProt Q9LR78 1-793) (enzyme)
